Reference: patent publication US8088804B2, “N-hydroxyamide derivatives possessing antibacterial activity” (Pfizer Inc., priority 2005, dated 2012)
At least one structure is not confirmed: it was looked up by name or label, or the drawing left a doubt.

Assays:
E. coli (2) = experiment: Susceptibility testing (MIC, CLSI microdilution); format: cell-based, Escherichia coli; conditions: 20 h at 35° C., in µg/mL (unit assumed)
Method: (§1) Compounds were tested following the microdilution method of CLSI (Clinical and Laboratory Standards Institute. Methods for dilution antimicrobial susceptibility tests for bacteria that grow aerobically; Approved standard—sixth edition. CLSI document M7-A5, CLSI, Wayne, Pa. 2003). Assays were performed in sterile plastic 96-well microtiter trays with round bottom wells (Greiner).
(§2) Stock solutions of test compounds and control antibiotics were prepared at 10 mg/ml in DMSO. Serial 2-fold dilutions of each drug were performed in a microtiter plate across each row using DMSO as solvent at 100-fold the desired final concentration. Wells in columns #1-11 contain drug and column #12 was kept as a growth control for the organism with no drug. Each well in the mother plate was diluted with sterile deionized water and DMSO, mixed, and volumes of 10 μl distributed to each well in the resulting assay plates.
Stock cultures were prepared using the Microbank™ method (Pro-Lab Diagnostics) and stored at −80° C. To propagate each strain, one bead was removed from the frozen vial and aseptically streaked onto Trypticase Soy Agar (Difco) which were incubated at 35° C. […]
(§3) The completed microtiter plates were incubated 20 h at 35° C. in ambient air. Optical density of each well was determined at 600 nm using a VersaMax Microplate reader (Molecular Devices, Sunnyvale, Calif.). […]

P. aerug. (2) = experiment: Susceptibility testing (MIC, CLSI microdilution); format: cell-based, Pseudomonas aeruginosa; conditions: 20 h at 35° C., in µg/mL (unit assumed)
Method: as §1, §2
Stock cultures were prepared using the Microbank™ method (Pro-Lab Diagnostics) and stored at −80° C. To propagate each strain, one bead was removed from the frozen vial and aseptically streaked onto Trypticase Soy Agar (Difco) which were incubated at 35° C. Standardized inocula were prepared using the direct colony suspension method according to CLSI guidelines (Clinical and Laboratory Standards Institute. Methods for dilution antimicrobial susceptibility tests for bacteria that grow aerobically; Approved standard—sixth edition. CLSI document M7-A5, CLSI, Wayne, Pa., 2003). Isolated colonies were selected from an 18-24 hr agar plate and resuspended in 0.9% sterile saline to match a 0.5 McFarland turbidity standard using a calorimeter (Vitek) at 80% of transmitance. The suspension was used within 15 minutes of preparation.
Mueller-Hinton Broth (MHB) (Difco) was prepared at a 1.1× concentration and supplemented with Ca++ and Mg++ as recommended by CLSI. […]
as §3

For CCCc1ccc(-c2ccc(C(=O)N3CC[C@H](OC)[C@H]3C(=O)NO)cc2)cc1 [Compound 7], the “MIC E. coli (2)” value (E. coli (2)) was 64->64.
For CCCc1ccc(-c2ccc(C(=O)N3CC[C@H](N)[C@H]3C(=O)NO)cc2)cc1 [Compound 2], the “MIC P. aerug. (2)” value (P. aerug. (2)) was 64->64.
For CCCc1ccc(-c2ccc(C(=O)N3CC[C@@H](O)[C@H]3C(=O)NO)cc2)cc1 [Compound 39], the “MIC P. aerug. (2)” value (P. aerug. (2)) was 64->64.
CCCc1ccc(-c2ccc(C(=O)N3C[C@H](N)[C@@H](O)[C@H]3C(=O)NO)cc2)cc1 [Compound 12] was tested, and the “MIC P. aerug. (2)” value (P. aerug. (2)) was 32->64.
